Source: paper PMC4086815
No constants are given. Whether binding was seen depends on the method and setting. For some assays here: Binding seen in cells or lysates may run through a third protein. Some entries that bind do so weakly or less than the wild type. Sequences can lack the tags named with a protein. Values belong to the molecule of their own block, whether it stands above or below them.

Protein sequences, listed by entry. Tags and fused reporters are not part of them.
UniProt P47167: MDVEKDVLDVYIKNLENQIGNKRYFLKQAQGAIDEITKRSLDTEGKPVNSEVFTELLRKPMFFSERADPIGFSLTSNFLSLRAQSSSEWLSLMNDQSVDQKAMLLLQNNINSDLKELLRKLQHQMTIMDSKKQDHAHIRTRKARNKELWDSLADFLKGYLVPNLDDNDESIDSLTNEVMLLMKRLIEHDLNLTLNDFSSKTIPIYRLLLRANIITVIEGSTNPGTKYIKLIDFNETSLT
UniProt P38907: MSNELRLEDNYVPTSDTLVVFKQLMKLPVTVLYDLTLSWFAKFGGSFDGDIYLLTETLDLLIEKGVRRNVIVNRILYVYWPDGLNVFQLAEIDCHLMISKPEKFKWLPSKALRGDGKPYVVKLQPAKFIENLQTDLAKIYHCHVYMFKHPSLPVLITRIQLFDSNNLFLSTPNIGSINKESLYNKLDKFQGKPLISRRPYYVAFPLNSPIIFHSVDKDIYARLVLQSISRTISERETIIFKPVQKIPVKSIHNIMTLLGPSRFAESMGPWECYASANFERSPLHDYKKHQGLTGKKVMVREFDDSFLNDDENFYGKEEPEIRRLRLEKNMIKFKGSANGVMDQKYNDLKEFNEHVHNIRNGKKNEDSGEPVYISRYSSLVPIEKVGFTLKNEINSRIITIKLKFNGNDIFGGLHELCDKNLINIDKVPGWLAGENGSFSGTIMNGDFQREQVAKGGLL
UniProt Q02732: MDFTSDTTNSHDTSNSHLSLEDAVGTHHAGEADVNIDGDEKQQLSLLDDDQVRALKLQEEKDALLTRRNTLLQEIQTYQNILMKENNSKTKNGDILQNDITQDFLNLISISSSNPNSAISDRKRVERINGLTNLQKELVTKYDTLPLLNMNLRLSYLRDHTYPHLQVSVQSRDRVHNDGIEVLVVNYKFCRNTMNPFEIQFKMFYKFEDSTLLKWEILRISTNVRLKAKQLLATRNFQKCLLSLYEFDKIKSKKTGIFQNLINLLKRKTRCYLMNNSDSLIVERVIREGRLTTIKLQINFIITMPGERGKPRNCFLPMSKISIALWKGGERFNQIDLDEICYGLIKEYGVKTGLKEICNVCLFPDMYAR

Columns and labels:
[1] = molecular target: T1, GST-Bbp1p (budding yeast) (UniProt Q12365); assay: pull-down; purified bead-bound GST-Bbp1p (glutathione Sepharose) mixed with cell extracts of AP22 yeast expressing HA-tagged proteins; eluted proteins blotted with anti-HA and anti-GST; only the target purified
T1 sequence: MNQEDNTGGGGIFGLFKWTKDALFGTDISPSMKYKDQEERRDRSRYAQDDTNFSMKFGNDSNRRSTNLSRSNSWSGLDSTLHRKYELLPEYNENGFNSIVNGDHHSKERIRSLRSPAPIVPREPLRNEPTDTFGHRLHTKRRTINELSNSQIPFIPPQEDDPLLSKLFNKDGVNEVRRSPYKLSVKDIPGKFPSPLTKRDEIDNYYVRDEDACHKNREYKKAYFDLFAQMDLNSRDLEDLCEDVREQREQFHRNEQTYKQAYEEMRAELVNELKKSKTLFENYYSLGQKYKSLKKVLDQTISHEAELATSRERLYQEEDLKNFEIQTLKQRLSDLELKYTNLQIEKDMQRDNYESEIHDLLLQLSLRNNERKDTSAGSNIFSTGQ

[2] = molecular target: BD-Mcm22p (budding yeast) (UniProt P47167); assay: two-hybrid; strain PJ69-4A; pGAD424 (GAL4 activation domain fusions of Bbp1p) and pGBT9 (GAL4 binding domain fusions); growth at 30 C on SC plates lacking leucine, tryptophan and histidine
[3] = molecular target: Chl4p fused to the GAL4 binding domain (budding yeast) (UniProt P38907); assay: as above
[4] = molecular target: Ctf19p fused to the GAL4 binding domain (budding yeast) (UniProt Q02732); assay: as above

- binding [1]: binds
Molecule: HA-Ctf19p (from UniProt Q02732 1-369)

- binding [1]: binds
Molecule: HA-Chl4p (from UniProt P38907 1-458)

- binding [2]: binds
- binding [3]: binds
- binding [4]: binds
B1: Bbp1p, full length ORF fused to the GAL4 activation domain (protein, UniProt Q12365 1-385)
chain: T1 sequence
